The record followed here is article PMC5065315.

Chains of the proteins cited; added tags and fusions are not shown.
UniProt Q9CQJ4: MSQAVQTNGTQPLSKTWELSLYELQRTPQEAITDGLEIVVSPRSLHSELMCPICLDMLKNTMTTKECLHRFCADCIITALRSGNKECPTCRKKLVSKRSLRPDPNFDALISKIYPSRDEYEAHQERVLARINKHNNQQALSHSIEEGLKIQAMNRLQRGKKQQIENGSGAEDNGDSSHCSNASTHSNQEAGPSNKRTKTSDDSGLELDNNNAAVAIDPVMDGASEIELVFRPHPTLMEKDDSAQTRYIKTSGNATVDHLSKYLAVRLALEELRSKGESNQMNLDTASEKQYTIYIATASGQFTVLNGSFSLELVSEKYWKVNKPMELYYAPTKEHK
UniProt Q8CGN4: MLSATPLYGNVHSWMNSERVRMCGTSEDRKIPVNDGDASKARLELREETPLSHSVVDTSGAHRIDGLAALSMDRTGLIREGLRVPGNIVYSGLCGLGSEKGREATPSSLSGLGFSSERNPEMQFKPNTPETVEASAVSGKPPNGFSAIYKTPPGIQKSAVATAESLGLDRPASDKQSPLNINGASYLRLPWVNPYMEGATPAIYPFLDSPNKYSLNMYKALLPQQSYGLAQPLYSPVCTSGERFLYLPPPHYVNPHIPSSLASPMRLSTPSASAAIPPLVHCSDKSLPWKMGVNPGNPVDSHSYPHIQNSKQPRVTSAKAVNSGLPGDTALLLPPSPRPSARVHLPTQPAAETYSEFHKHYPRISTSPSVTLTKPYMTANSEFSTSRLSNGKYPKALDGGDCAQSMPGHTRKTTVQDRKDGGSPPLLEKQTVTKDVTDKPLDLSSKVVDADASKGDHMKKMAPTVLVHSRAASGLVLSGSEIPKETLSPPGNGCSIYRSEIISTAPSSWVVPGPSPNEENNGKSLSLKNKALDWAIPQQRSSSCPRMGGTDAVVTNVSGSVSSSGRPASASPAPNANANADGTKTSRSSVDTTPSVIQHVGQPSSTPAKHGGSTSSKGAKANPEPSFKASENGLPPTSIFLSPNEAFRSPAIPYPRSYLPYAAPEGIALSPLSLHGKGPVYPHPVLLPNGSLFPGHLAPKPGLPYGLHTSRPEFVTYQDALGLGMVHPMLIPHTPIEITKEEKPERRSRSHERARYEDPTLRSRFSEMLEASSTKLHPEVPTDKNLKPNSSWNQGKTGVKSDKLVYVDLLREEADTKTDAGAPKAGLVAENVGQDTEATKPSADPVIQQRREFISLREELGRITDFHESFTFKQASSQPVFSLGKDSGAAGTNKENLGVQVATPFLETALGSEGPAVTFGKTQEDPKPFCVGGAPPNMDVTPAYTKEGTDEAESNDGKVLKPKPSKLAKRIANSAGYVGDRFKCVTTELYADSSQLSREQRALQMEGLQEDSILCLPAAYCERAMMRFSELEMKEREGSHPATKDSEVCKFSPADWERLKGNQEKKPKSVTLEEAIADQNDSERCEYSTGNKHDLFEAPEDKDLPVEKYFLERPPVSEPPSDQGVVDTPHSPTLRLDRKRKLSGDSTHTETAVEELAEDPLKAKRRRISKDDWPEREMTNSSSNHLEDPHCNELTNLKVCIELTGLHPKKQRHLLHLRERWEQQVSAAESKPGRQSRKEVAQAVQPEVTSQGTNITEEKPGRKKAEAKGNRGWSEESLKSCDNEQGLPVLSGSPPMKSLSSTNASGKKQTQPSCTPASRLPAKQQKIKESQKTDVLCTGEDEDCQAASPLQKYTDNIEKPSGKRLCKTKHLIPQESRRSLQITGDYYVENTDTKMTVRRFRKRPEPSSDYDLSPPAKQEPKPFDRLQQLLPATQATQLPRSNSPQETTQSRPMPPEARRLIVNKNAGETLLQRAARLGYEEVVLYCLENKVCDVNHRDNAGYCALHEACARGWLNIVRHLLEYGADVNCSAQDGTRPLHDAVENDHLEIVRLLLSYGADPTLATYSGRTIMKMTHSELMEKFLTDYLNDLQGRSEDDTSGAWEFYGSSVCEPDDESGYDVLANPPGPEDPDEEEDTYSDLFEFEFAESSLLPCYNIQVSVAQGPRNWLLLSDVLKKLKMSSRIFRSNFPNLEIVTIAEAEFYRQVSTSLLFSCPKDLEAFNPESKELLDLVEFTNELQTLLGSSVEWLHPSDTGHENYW

Results are given in words; binding and its absence hold for the method and conditions named. For some of these results: Binding seen in cells or lysates may run through a third protein. Some results given as binding are weak or reduced against the parent protein; the word gives no strength.

Test [1] deals with T1, PCGF1 (mouse) (UniProt Q8R023).
T1 sequence: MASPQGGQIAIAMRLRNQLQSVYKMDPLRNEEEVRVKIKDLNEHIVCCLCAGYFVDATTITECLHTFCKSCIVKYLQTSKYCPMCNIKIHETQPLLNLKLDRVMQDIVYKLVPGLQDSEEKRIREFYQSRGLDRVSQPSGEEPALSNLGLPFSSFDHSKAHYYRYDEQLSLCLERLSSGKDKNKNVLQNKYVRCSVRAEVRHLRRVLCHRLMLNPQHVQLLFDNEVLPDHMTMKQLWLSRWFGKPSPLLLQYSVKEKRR
As to the kind of experiment: cross-linking; 30 ug of the affinity-purified five-component PCGF1-PRC1 holocomplex cross-linked with BS3 for 30 min at 37 C; trypsin digest, LC-MS/MS, XQuest, confidence score cut-off > 15; both purified.

Test [2] concerns the target T2, RYBP (mouse) (UniProt Q8CCI5).
T2 sequence: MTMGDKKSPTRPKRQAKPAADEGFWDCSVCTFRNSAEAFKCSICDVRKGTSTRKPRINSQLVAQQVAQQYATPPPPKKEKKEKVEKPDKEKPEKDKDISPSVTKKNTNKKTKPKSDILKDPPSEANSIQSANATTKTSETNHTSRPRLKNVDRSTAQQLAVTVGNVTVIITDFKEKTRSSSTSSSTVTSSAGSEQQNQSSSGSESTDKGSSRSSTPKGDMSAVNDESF
Described as above.

Test [3] deals with RING1B (mouse) (UniProt Q9CQJ4). As to the kind of experiment: cross-linking; affinity-purified RYBP-PCGF1-RING1B trimer (compared with the PCGF1-RING1B dimer) cross-linked with BS3 for 30 min at 37 C; trypsin digest, LC-MS/MS, XQuest; both purified.
For test [4] the target is unchanged. As to the kind of experiment: pull-down; sub-complexes: co-expression vectors in which individual proteins were omitted (or PCGF4 with RING1B); affinity-purified via FLAG-RING1B on FLAG affinity resin; Coomassie-stained gel.
Test [5] shares this target. As to the kind of experiment: cross-linking; 30 ug of the affinity-purified five-component PCGF1-PRC1 holocomplex cross-linked with BS3 for 30 min at 37 C; trypsin digest, LC-MS/MS, XQuest, confidence score cut-off > 15; both purified.
Test [6] shares this target. As to the kind of experiment: pull-down; five proteins (RING1B, PCGF1, RYBP, KDM2B, BCOR) co-expressed by baculovirus in SF21 cells; extract bound to FLAG affinity resin via FLAG-RING1B, washed with 150 mM NaCl buffer, eluted with FLAG peptide; Coomassie-stained gel.

Regarding BCOR (from UniProt Q8CGN4 1-1759), the binding result in test [1] and in test [2] was “binds” in each case.

B1: RYBP (protein, UniProt Q8CCI5 1-228)
chain: T2 sequence
Turning to B1, the binding entry in test [3], in test [4], in test [5] and in test [6] was “binds” throughout.

B2: PCGF4 (protein, UniProt P25916 1-324)
chain: MHRTTRIKITELNPHLMCVLCGGYFIDATTIIECLHSFCKTCIVRYLETSKYCPICDVQVHKTRPLLNIRSDKTLQDIVYKLVPGLFKNEMKRRRDFYAAHPSADAANGSNEDRGEVADEEKRIITDDEIISLSIEFFDQSRLDRKVNKEKPKEEVNDKRYLRCPAAMTVMHLRKFLRSKMDIPNTFQIDVMYEEEPLKDYYTLMDIAYIYTWRRNGPLPLKYRVRPTCKRMKMSHQRDGLTNAGELESDSGSDKANSPAGGVPSTSSCLPSPSTPVQSPHPQFPHISSTMNGTSNSPSANHQSSFASRPRKSSLNGSSATSSG
On to B2, for which the binding entry in test [4] is given as “binds”.
